# Measured values published in the supplement of paper PMC12823440, “Inhibitors supercharge kinase turnover through native proteolytic circuits” (Nature, 2025).
# The chains behind the UniProt entries cited, without tags or fusion partners. Where a name states a change or a piece, a line headed by the entry shows the natural chain unless it says otherwise.
# UniProt Q9UQM7, whole entry: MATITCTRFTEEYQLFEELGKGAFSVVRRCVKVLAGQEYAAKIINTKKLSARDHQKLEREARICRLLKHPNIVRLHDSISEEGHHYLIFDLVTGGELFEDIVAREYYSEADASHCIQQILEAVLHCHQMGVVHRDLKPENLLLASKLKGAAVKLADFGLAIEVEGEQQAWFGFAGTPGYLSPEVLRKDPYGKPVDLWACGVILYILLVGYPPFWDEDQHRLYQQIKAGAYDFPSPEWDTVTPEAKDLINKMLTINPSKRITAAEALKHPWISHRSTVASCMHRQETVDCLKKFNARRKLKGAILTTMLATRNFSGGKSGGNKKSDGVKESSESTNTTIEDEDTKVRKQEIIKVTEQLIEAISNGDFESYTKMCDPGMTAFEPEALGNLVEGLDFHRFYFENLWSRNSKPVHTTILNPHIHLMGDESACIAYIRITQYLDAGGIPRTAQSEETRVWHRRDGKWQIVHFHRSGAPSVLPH
# UniProt Q13555: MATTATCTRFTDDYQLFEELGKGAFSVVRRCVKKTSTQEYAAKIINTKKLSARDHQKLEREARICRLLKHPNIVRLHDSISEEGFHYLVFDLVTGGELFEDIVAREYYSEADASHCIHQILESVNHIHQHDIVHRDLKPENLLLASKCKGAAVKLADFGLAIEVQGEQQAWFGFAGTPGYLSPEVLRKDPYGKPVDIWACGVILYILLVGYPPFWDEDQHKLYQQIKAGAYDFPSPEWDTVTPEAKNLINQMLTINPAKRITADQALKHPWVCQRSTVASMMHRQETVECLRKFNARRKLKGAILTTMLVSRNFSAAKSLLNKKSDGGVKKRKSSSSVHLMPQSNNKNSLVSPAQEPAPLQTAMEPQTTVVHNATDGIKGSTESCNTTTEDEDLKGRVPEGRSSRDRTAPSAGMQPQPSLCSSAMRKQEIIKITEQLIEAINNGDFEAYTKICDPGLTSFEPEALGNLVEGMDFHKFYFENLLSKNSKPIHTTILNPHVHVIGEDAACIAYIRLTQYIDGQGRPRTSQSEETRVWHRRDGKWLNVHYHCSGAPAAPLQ
# UniProt Q15131: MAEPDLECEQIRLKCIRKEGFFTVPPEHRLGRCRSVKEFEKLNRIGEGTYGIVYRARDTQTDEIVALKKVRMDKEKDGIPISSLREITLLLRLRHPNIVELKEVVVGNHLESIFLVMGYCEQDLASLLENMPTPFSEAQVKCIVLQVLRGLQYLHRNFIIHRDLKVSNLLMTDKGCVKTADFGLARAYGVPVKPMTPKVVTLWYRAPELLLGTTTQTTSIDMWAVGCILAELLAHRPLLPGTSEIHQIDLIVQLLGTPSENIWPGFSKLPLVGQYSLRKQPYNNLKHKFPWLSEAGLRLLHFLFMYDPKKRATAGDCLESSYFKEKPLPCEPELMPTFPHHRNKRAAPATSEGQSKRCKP
# UniProt Q00526: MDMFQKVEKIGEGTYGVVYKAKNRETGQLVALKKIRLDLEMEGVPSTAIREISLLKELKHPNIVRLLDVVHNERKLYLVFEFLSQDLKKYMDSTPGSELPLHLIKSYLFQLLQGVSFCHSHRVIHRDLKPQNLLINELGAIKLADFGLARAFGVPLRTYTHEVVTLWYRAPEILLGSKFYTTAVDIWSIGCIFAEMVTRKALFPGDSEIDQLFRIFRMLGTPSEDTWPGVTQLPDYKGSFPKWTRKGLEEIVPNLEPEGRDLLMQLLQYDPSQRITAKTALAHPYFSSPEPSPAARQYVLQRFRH
# UniProt Q00535, whole entry, looked up: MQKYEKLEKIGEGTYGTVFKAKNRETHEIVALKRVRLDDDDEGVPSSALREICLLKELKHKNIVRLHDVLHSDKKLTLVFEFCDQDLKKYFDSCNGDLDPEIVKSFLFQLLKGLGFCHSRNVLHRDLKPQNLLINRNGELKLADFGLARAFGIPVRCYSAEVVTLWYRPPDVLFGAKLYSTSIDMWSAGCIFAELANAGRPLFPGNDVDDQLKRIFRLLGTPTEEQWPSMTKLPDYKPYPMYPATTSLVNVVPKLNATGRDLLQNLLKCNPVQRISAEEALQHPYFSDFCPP
# UniProt Q00534, whole entry: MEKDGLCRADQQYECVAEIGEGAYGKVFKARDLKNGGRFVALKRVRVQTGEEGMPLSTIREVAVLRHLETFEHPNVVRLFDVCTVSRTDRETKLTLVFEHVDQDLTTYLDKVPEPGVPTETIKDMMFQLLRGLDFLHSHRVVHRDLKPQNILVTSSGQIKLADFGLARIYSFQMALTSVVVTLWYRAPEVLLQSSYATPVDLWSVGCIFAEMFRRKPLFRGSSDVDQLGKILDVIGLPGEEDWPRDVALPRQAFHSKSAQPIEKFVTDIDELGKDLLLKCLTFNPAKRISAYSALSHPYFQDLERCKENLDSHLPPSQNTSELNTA
# UniProt O96017, whole entry: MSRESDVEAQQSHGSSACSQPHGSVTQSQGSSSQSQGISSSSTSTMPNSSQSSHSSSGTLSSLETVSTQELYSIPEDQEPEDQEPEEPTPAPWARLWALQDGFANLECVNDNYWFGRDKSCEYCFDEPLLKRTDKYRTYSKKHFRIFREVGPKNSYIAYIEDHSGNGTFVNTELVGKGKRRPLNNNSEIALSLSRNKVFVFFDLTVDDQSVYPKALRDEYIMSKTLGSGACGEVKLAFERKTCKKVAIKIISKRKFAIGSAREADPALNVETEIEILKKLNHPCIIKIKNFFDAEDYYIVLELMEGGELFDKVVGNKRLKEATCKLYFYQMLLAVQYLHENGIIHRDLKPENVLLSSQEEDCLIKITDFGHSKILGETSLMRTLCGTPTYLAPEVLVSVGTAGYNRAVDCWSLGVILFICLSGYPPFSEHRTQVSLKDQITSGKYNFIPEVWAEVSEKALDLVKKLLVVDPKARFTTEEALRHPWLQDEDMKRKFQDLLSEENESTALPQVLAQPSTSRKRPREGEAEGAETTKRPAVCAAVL
# UniProt P07333, whole entry: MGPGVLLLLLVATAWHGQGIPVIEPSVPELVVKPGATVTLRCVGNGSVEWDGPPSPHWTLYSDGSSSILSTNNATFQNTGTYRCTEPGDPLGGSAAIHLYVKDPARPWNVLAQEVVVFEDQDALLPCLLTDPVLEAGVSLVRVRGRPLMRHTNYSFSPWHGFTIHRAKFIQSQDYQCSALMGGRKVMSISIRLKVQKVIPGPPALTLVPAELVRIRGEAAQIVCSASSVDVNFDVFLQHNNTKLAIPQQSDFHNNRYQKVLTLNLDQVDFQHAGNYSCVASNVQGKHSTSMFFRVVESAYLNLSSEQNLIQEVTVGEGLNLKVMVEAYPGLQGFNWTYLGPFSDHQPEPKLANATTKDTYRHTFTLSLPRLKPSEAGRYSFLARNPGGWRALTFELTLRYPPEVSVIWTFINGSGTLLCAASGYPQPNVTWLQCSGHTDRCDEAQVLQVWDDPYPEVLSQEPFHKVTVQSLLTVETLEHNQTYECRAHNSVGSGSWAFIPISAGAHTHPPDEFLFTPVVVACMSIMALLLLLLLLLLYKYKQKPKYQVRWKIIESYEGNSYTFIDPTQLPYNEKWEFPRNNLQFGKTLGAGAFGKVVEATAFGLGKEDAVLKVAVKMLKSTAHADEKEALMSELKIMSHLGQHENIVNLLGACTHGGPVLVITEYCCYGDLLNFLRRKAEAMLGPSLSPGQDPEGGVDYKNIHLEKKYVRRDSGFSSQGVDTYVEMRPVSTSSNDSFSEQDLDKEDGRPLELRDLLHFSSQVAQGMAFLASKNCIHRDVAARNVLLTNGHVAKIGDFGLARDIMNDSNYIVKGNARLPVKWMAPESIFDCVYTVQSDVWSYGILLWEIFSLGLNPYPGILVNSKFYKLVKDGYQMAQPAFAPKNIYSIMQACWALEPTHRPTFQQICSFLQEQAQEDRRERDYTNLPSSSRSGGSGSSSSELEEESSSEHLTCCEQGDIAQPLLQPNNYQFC
# UniProt P41240: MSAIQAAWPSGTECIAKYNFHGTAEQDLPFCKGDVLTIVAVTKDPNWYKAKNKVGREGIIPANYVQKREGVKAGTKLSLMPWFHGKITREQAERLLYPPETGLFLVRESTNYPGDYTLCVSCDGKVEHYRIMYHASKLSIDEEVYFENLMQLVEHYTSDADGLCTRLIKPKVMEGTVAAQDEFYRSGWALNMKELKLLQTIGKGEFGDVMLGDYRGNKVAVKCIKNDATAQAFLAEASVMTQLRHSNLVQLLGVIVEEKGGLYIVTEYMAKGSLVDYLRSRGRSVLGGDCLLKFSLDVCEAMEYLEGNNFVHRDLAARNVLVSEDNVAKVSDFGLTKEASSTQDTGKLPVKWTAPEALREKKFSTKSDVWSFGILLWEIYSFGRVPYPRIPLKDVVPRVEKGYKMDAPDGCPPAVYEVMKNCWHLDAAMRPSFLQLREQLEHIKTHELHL
# UniProt P48729: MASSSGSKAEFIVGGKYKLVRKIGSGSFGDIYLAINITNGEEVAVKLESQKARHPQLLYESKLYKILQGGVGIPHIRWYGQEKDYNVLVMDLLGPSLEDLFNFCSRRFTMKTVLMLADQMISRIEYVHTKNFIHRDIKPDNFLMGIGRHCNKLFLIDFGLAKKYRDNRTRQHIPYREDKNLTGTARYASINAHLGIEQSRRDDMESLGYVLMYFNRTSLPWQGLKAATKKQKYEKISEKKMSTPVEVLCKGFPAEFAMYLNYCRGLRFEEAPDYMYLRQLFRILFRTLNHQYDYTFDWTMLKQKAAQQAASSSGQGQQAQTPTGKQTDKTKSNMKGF
# UniProt P48730: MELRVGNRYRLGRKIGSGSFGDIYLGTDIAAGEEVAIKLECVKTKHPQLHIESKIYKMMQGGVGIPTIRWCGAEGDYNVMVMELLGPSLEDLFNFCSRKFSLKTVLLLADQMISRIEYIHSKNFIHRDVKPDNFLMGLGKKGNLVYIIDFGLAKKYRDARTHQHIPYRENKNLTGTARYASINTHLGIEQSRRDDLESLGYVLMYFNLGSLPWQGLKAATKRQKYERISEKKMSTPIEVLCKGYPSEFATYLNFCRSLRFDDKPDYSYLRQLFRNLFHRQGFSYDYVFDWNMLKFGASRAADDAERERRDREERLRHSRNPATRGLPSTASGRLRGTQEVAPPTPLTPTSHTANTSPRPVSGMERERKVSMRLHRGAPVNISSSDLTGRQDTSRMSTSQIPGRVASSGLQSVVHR
# UniProt Q08345: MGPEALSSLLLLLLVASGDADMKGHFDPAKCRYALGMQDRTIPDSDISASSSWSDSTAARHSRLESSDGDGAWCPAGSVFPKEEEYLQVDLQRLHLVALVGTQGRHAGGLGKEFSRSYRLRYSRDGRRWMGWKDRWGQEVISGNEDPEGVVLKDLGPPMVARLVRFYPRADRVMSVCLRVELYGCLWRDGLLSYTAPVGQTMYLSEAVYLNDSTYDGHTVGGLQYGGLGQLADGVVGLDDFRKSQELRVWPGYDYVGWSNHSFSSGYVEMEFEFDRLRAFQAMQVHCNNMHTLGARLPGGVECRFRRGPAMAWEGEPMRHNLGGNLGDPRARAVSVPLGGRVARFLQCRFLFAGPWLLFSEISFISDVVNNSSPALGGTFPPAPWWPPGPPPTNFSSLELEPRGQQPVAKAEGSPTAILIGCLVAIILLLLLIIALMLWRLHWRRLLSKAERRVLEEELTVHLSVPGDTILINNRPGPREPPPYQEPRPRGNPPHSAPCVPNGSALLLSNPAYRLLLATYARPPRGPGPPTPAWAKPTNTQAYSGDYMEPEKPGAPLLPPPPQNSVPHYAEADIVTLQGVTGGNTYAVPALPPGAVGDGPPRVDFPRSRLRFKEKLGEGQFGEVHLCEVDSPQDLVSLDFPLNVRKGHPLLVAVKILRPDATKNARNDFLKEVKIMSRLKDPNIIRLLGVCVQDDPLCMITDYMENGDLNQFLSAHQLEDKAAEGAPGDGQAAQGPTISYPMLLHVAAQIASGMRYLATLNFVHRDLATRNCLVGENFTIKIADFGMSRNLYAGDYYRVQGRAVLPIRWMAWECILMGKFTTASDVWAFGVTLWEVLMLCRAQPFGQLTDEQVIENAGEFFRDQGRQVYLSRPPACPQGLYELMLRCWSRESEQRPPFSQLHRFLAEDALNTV
# UniProt Q92630: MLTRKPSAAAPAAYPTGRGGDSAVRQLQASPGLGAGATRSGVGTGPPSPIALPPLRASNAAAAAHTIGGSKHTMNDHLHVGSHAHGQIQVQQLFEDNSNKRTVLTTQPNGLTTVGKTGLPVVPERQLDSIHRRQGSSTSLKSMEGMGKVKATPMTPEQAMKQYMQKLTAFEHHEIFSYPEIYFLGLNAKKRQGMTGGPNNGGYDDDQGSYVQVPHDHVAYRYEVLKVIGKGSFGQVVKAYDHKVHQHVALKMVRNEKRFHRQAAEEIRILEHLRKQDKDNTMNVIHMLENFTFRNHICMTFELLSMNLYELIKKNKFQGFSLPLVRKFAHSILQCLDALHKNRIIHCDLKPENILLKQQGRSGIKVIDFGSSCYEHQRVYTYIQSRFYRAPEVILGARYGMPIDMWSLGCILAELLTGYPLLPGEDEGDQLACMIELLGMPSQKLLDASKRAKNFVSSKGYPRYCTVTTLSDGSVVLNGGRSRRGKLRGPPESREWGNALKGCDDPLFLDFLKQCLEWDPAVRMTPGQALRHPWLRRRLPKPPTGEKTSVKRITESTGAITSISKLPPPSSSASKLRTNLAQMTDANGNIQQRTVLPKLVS
# The other results are listed elsewhere or left out. The calls rarely recur for the same compound in another form.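 Kinases were expressed as nanoluciferase fusions in K562 cells and luminescence was read every 4 h between 2 and 18 h as percent of control, DMSO set to 100% and a positive control to 0%. A time point counts as decreased when the signal drops significantly (2 sigma). The hit call is the authors' own, does not follow from the count of time points alone, and its rule is not shown.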
# Experiments:
# Assay in all cases: number of time points (of 5) at which kinase-Nluc abundance scored as decreased, DMSO-normalised (count); higher = more persistent destabilization
# Conditions in all cases: K562; 2-18 h
# CAMK2A = CAMK2A (UniProt Q9UQM7)
# CAMK2G = CAMK2G (UniProt Q13555)
# CDK10 = CDK10 (UniProt Q15131)
# CDK2 = CDK2 (UniProt P24941)
# CDK3 = CDK3 (UniProt Q00526)
# CDK5 = CDK5 (UniProt Q00535)
# CDK6 = CDK6 (UniProt Q00534)
# CHEK2 = CHEK2 (UniProt O96017)
# CSF1R = CSF1R (UniProt P07333)
# CSK = CSK (UniProt P41240)
# CSNK1A1 = CSNK1A1 (UniProt P48729)
# CSNK1D = CSNK1D (UniProt P48730)
# DDR1 = DDR1 (UniProt Q08345)
# DYRK1B = DYRK1B (UniProt Q9Y463)
# DYRK2 = DYRK2 (UniProt Q92630)
# EGFR = EGFR (UniProt P00533)
# EGFR_G719S = EGFR_G719S (UniProt P00533)
# EGFR_G719S_T790M = EGFR_G719S_T790M (UniProt P00533)
# EGFR_L718V = EGFR_L718V (UniProt P00533)
# EGFR_L858R = EGFR_L858R (UniProt P00533)
SMILES,number of time points (CAMK2A),number of time points (CAMK2G),number of time points (CDK10),number of time points (CDK2),number of time points (CDK3),number of time points (CDK5),number of time points (CDK6),number of time points (CHEK2),number of time points (CSF1R),number of time points (CSK),number of time points (CSNK1A1),number of time points (CSNK1D),number of time points (DDR1),number of time points (DYRK1B),number of time points (DYRK2),number of time points (EGFR),number of time points (EGFR_G719S),number of time points (EGFR_G719S_T790M),number of time points (EGFR_L718V),number of time points (EGFR_L858R)
COc1ccc(/C=C/c2cc(OC)c(OC)c(OC)c2)cc1 (2.5 µM),1,1,0,0,1,0,0,2,2,0,0,0,1,0,1,0,0,3,2,2
N#CC(C#N)=Cc1ccc(O)c(O)c1 [Tyrphostin 23] (10 µM),0,0,0,0,0,0,0,0,0,0,0,0,0,0,0,–,–,–,–,–
Cc1n[nH]cc1-c1cc2nc([C@@H]3CC4CCN3CC4)[nH]c(=O)c2s1 [Simurosertib] (2.5 µM),0,0,0,0,0,0,0,0,0,0,0,0,0,0,0,0,0,0,0,0
C=C[C@H]1CN2CC[C@]3(C(=O)Nc4ccccc43)[C@@H]2C[C@@H]1/C(=C\OC)C(=O)OC [Corynoxeine] (2 µM),0,0,0,0,0,0,0,0,0,0,0,0,0,0,0,0,0,0,0,0
N#CC(C#N)=Cc1ccc([N+](=O)[O-])c(O)c1 (10 µM),0,0,0,0,0,0,0,0,0,0,0,0,0,0,0,0,0,0,0,0
CCN1CCN(C(=O)Cc2ccc(Nc3ncc(F)c(Nc4ccc(C(=O)Nc5ccccc5Cl)cc4)n3)cc2)CC1 (2.5 µM),0,0,0,0,0,0,0,0,0,0,0,0,0,0,0,0,0,0,0,0
CCCCNc1nc(N)c2[nH]c(=O)n(Cc3ccc(C)nc3)c2n1 (10 µM),0,0,0,0,0,0,0,0,0,0,0,0,0,0,0,0,0,0,0,0
CCCS(=O)(=O)Nc1ccc(F)c(-n2cc(-c3cncnc3)c3nc(N(C)C4CCN(CC)CC4)ccc32)c1F (2 µM),0,0,0,0,0,0,0,0,0,0,0,0,0,0,0,0,0,0,0,0
CCCCCCCCCCCCCCCCOC[C@H](COP(=O)([O-])OCC[N+](C)(C)C)OC(C)=O (10 µM),0,0,0,0,0,0,0,0,0,0,0,0,0,0,0,0,0,0,0,0
O=C(N[C@@H](COc1ccc2[nH]c(=O)[nH]c2c1)c1ccccc1)c1cccn(Cc2ccc(F)c(F)c2)c1=O (2.5 µM),0,0,0,0,0,0,0,0,0,0,0,0,0,0,0,0,0,0,0,0
O=C1C=CC[C@@H]2[C@H]3CCCN4CCC[C@@H](CN12)[C@@H]34 [Sophocarpine] (10 µM),0,0,0,0,0,0,0,0,0,0,0,0,0,0,0,0,0,0,0,0
O=C(O)c1sc2cc(Cl)ccc2c1Cl (10 µM),0,0,0,0,0,0,3,0,0,0,0,0,0,0,0,0,0,0,0,0
C[C@H](CCC(=O)O)C[C@H](C)C[C@H](C)C(=O)/C=C(\O)[C@H](C)C[C@H](C)C/C=C/[C@@H](C)[C@@H](O)[C@@H](C)[C@@H](O)C[C@@H]1CC[C@@](C)([C@H]2CC[C@@](C)([C@@H](C)O)O2)O1 [Ionomycin (calcium)] (2.5 µM),0,0,0,0,0,0,0,0,0,0,0,0,0,0,0,0,0,0,0,0
O=c1cc(O)c2ccccc2o1 [4-Hydroxycoumarin] (10 µM),0,0,0,0,0,0,0,0,0,0,0,0,0,0,0,0,0,0,0,0
O=C1C=CC[C@@H]2[C@H]3CCCN4CCC[C@@H](CN12)[C@@H]34 [Sophocarpine (monohydrate)] (2.5 µM),0,0,0,0,0,0,0,0,0,0,0,0,0,0,0,0,0,0,0,0
C/C(O)=C(\C#N)C(=O)Nc1cc(Br)ccc1Br (10 µM),0,0,0,0,0,0,0,0,0,0,0,0,0,0,0,0,0,0,0,0
NCCc1cn(S(=O)(=O)c2c(Cl)nc3sccn23)c2ccccc12 (10 µM),0,0,0,0,0,0,0,0,0,0,0,0,0,0,0,0,0,0,0,0
COC[C@H]1OC(=O)c2coc3c2[C@@]1(C)C1=C(C3=O)[C@@H]2CCC(=O)[C@@]2(C)C[C@H]1OC(C)=O [Wortmannin] (2.5 µM),0,0,0,0,0,0,0,2,0,0,0,0,4,2,3,0,2,0,0,0
Cn1cc(C2=C(c3cn(C4CCN(Cc5ccccn5)CC4)c4ccccc34)C(=O)NC2=O)c2ccccc21 [Enzastaurin] (10 µM),0,0,0,0,0,0,0,0,0,0,0,0,0,0,0,0,0,0,0,0
CC1C(=O)OC2C(O)C34C5OC(=O)C3(OC3OC(=O)C(O)C34C(C(C)(C)C)C5O)C12O (centres undefined) [Ginkgolide C] (10 µM),0,0,0,0,0,0,0,0,0,0,0,0,0,0,0,0,0,0,0,0
Cc1[nH]ncc1-c1cc2nc([C@H]3CC4CCN3CC4)[nH]c(=O)c2s1 [(R)-Simurosertib] (10 µM),0,0,0,0,0,0,0,0,0,0,0,0,0,0,0,0,0,0,0,0
COc1cc2c(cc1F)C(c1ccccc1Cl)=Nc1c(n[nH]c1C)N2 (0.5 µM),0,0,0,0,0,–,0,0,0,0,0,0,0,0,0,–,–,–,–,–

# A second format for some results above.
SMILES	number of time points (CAMK2A)	number of time points (CAMK2G)	number of time points (CDK10)	number of time points (CDK2)	number of time points (CDK3)	number of time points (CDK5)	number of time points (CDK6)	number of time points (CHEK2)	number of time points (CSF1R)	number of time points (CSK)	number of time points (CSNK1A1)	number of time points (CSNK1D)	number of time points (DDR1)	number of time points (DYRK1B)	number of time points (DYRK2)	number of time points (EGFR)	number of time points (EGFR_G719S)	number of time points (EGFR_G719S_T790M)	number of time points (EGFR_L718V)	number of time points (EGFR_L858R)
COc1ccc(/C=C/c2cc(OC)c(OC)c(OC)c2)cc1 (2.5 µM)	1	1	0	0	1	0	0	2	2	0	0	0	1	0	1	0	0	3	2	2
CCCCNc1nc(N)c2[nH]c(=O)n(Cc3ccc(C)nc3)c2n1 (10 µM)	0	0	0	0	0	0	0	0	0	0	0	0	0	0	0	0	0	0	0	0
O=c1cc(O)c2ccccc2o1 [4-Hydroxycoumarin] (10 µM)	0	0	0	0	0	0	0	0	0	0	0	0	0	0	0	0	0	0	0	0
C/C(O)=C(\C#N)C(=O)Nc1cc(Br)ccc1Br (10 µM)	0	0	0	0	0	0	0	0	0	0	0	0	0	0	0	0	0	0	0	0
NCCc1cn(S(=O)(=O)c2c(Cl)nc3sccn23)c2ccccc12 (10 µM)	0	0	0	0	0	0	0	0	0	0	0	0	0	0	0	0	0	0	0	0
